The source of these data is US20020199211A1.

Protein sequences, listed by entry. Tags and fused reporters are not part of them. Lines headed by an entry give the natural chain unless they say otherwise; changes in a name come on top. Residues count along the entry.
UniProt P42768: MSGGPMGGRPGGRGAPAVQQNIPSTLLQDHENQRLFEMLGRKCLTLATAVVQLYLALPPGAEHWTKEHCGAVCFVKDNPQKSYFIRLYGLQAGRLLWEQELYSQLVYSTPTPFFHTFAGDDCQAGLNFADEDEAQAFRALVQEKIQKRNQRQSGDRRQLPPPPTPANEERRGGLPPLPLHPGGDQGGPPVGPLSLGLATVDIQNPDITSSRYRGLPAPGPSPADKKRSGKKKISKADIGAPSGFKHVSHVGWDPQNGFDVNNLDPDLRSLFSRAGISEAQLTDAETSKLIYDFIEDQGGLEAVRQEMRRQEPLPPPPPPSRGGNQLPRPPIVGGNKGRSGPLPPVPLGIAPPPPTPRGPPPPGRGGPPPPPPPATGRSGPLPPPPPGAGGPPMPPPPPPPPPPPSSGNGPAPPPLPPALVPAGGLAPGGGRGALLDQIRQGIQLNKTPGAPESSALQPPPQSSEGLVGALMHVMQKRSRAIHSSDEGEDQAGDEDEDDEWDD
GST-WASP1-270: residues 1-270 of P42768
endogenous WASP from the human B cell line BJAB: residues 2-502 of P42768
UniProt O43516: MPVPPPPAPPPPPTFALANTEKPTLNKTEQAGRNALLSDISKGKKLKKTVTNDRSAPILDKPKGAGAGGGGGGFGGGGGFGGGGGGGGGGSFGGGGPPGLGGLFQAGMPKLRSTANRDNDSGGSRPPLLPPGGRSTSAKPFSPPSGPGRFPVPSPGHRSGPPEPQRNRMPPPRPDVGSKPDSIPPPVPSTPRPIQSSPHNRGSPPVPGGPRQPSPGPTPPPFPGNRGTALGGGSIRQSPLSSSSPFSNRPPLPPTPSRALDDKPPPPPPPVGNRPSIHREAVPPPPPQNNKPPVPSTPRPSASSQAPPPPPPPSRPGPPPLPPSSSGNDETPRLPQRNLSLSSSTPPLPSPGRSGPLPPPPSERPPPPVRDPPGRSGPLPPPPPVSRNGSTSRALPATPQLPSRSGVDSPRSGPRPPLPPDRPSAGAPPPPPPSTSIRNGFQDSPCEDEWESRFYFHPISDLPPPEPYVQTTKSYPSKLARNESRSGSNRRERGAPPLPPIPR

For one assay, the target named is GST-WASP1-270 (UniProt P42768). Briefly: in vitro pull-down of mixed bacterial lysates on GSH beads, anti-MBP Western blot.
Assay [1] concerns the target endogenous WASP from the human B cell line BJAB (human) (UniProt P42768). Description: co-immunoprecipitation with anti-FLAG M2 from transfected BJAB cells, anti-WASP Western blot. In general terms: Immunoblotting shows a protein as a band on a membrane.
The target is the same in assay [2]. Briefly: co-immunoprecipitation with anti-FLAG from BJAB clone 3, anti-WASP Western blot.

Results are given in words; binding and its absence hold for the method and conditions named. In cells and extracts the contact can be indirect. Some results given as binding are weak or reduced against the parent protein; the word gives no strength.

As to MBP-WIP4 (from UniProt O43516 321-503), in the assay with GST-WASP1-270, the binding entry was “binds”.

Take “FLAG-tagged full length WIP (from UniProt O43516 1-503)”: the binding result in assay [1] and in assay [2] was “binds” throughout.
